Assay results: patent publication US8691866
Numbering of substitutions follows the chain as printed. For at least one entry, the source does not settle the construct or the ends of the probe. Where cells or extracts were used, other partners may take part. For some of these results: No signal at the amounts used counts as a negative. Where a protein sequence is shown, tags need not be part of it.

Columns and labels:
[1] = biological target: T1, IRP1 (iron regulatory protein 1, ACO1) (UniProt P21399); test: EMSA; settings: supershift with IRP1 antibody; enhanced by compounds 40, 41, 76, 77 and PGJ2, decreased by hypoxia; printed SEQ 17 is the IRE core, probe was nt 50-100 of 5'-UTR; protein in an extract; protein details: endogenous, 786-O cell lysate
T1 sequence (looked up, limits assumed): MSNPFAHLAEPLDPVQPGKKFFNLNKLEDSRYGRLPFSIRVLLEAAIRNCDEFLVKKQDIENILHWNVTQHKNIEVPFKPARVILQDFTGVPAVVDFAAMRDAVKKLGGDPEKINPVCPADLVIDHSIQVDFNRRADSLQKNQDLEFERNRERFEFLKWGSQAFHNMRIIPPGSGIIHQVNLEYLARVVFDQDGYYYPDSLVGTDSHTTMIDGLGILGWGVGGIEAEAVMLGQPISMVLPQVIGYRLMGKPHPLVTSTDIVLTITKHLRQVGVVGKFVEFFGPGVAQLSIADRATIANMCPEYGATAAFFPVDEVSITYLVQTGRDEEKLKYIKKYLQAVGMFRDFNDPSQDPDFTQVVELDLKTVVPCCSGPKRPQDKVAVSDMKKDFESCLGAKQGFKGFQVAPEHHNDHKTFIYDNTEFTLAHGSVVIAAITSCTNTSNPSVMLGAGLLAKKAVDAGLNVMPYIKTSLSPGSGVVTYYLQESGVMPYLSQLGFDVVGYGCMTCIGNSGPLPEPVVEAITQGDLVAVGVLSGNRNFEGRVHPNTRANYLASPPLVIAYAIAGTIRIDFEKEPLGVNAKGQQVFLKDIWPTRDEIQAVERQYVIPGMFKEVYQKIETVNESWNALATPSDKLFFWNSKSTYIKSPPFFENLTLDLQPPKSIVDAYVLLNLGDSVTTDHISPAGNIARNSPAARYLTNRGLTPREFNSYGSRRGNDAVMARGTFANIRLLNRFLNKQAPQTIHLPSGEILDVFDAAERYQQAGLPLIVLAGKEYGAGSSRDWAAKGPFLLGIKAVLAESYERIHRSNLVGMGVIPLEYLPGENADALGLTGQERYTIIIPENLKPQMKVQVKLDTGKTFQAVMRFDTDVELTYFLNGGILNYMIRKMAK

[2] = biological target: T2, IRP2 (iron regulatory protein 2, IREB2) (UniProt P48200); test: EMSA; settings: no IRP2 supershift, normoxia or hypoxia, with compound 76 or DFO; protein in an extract; protein details: endogenous, 786-O cell lysate
T2 sequence (looked up, limits assumed): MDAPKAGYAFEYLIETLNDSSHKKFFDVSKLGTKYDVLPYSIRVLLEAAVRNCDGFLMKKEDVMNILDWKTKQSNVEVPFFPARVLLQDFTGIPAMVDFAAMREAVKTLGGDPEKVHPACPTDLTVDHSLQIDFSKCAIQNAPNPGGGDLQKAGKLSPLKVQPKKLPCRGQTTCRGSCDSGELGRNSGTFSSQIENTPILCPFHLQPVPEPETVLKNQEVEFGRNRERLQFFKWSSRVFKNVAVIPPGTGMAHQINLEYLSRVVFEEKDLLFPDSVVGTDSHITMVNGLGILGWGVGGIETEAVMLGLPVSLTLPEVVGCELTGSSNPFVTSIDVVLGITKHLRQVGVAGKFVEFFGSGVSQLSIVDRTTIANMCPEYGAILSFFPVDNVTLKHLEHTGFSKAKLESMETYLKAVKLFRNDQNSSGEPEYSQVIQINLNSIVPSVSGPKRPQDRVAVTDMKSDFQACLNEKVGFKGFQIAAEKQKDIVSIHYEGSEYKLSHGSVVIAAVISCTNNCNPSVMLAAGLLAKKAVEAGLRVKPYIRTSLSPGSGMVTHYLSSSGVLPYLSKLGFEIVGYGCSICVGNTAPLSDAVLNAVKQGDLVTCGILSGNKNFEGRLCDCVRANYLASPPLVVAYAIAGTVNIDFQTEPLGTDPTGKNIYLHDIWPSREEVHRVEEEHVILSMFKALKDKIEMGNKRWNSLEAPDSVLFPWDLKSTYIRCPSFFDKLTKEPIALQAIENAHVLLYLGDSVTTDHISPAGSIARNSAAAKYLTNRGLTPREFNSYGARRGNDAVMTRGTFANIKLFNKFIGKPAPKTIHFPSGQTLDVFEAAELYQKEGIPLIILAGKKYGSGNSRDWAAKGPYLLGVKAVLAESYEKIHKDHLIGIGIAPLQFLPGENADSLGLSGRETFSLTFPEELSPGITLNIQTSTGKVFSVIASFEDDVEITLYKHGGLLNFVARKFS

[3] = biological target: T3, IRP1 S138E (phosphomimetic) (UniProt P21399); test: EMSA; settings: protein in a lysate after overexpression; protein details: stably expressed in 786-O or IRP1-/- MEFs
T3 sequence (looked up, limits assumed): T1 sequence (looked up, limits assumed) with S138E

[4] = biological target: T3, IRP1 S138E (phosphomimetic); test: pull-down; settings: biotinylated mRNA pull down; fails to dissociate in hypoxia; protein in a lysate after overexpression; protein details: stably expressed in 786-O or IRP1-/- MEFs

Question: What does the source list for “UACAAUCCUCGGCAGUGUCCUGAGACUGUA [HIF-2a 5'-UTR IRE probe (nt 50-100, UTR16)]”?
Answer: binding result [1]: binds; binding result [2]: no binding; binding result [3]: binds; binding result [4]: binds
